Data reported in paper PMC10713534.
Results are given in words; binding and its absence hold for the method and conditions named. Binding seen in cells or lysates may run through a third protein. Some binding calls cover weakened binding; strength is not graded here.

The chains behind the UniProt entries cited, without tags or fusion partners. Where a name states a change or a piece, a line headed by the entry shows the natural chain unless it says otherwise.
UniProt O75832: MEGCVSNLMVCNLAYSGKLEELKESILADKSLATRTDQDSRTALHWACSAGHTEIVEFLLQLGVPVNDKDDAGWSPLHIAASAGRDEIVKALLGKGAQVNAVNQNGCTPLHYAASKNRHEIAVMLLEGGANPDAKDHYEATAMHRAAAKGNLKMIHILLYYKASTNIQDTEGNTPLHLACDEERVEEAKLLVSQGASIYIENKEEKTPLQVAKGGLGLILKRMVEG
UniProt Q00987: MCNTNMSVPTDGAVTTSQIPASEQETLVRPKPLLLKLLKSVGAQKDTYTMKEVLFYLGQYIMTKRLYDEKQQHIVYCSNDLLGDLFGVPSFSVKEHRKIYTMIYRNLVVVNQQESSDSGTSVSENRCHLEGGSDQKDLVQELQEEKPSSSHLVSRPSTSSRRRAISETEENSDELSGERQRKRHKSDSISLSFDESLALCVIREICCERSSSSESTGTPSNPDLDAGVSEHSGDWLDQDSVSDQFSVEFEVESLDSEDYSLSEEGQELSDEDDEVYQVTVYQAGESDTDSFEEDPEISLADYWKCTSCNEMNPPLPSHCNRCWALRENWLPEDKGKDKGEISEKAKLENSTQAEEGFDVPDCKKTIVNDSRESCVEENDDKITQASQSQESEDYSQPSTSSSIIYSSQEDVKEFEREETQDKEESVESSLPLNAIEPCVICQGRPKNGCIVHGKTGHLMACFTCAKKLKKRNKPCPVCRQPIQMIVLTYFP

Experiments:
[1] = target: GST-Gankyrin fusion protein (human) (UniProt O75832); assay: pull-down; GST-Gankyrin (and GST) immobilized on Glutathione-Sepharose; in vitro translated 35S-labeled MDM2 added, 4 °C for an hour; eluted with 5 mM reduced glutathione, 10 mM Tris-HCl pH 8.0, 150 mM NaCl; only the target purified
HA-MDM2 (human) = HA-MDM2 (human) (UniProt Q00987); assay: co-IP; lysate of MDM2 KO HEK293T cells co-transfected with HA-MDM2 and Flag-Gankyrin plasmids; agarose-conjugated anti-HA and anti-Flag antibodies, overnight at 4 °C; detected by Western blot

binding [1] | binding (HA-MDM2 (human)) | Substance
binds | – | 35S-labeled MDM2 protein (from UniProt Q00987 1-491)
– | binds | Flag-Gankyrin (from UniProt O75832-1 1-226)
